This is one part of the list.
Experiments:
Experiment in all cases: glycan array binding signal (z-score within array); higher = stronger binding
Details in all cases: glycan notation: IUPAC condensed, linker removed
Gal(a1-6)Glc = target: Gal(a1-6)Glc
Summary of the method: (§1)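 From the Consortium for Functional Glycomics database, 3228 arrays were curated, keeping only those whose protein sequence was available. Binding is given as a within-array Z-score averaged across arrays sharing a protein sequence and across linkers. Negative Z-scores can be read as non-binding.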

Gal(b1-2)Gal = target: Gal(b1-2)Gal
Summary of the method: as §1

Gal(b1-3)Gal = target: Gal(b1-3)Gal
Summary of the method: as §1

Gal(b1-3)Gal(b1-4)GlcNAc = target: Gal(b1-3)Gal(b1-4)GlcNAc
Summary of the method: as §1

Gal(b1-3)GalNAc = target: Gal(b1-3)GalNAc
Summary of the method: as §1

[1] = target: Gal(b1-3)GalNAc(a1-3)[Fuc(a1-2)]Gal(b1-4)Glc
Summary of the method: as §1

[2] = target: Gal(b1-3)GalNAc(a1-3)[Fuc(a1-2)]Gal(b1-4)GlcNAc
Summary of the method: as §1

Gal(b1-3)GalNAc(b1-3)Gal = target: Gal(b1-3)GalNAc(b1-3)Gal
Summary of the method: as §1

[3] = target: Gal(b1-3)GalNAc(b1-3)Gal(a1-4)Gal(b1-4)Glc
Summary of the method: as §1

[4] = target: Gal(b1-3)GalNAc(b1-4)Gal(b1-4)Glc
Summary of the method: as §1

[5] = target: Gal(b1-3)GalNAc(b1-4)[Neu5Ac(a2-3)]Gal(b1-4)Glc
Summary of the method: as §1

Gal(b1-3)GlcNAc = target: Gal(b1-3)GlcNAc
Summary of the method: as §1

[6] = target: Gal(b1-3)GlcNAc(a1-3)Gal(b1-4)GlcNAc
Summary of the method: as §1

[7] = target: Gal(b1-3)GlcNAc(a1-6)Gal(b1-4)GlcNAc
Summary of the method: as §1

Gal(b1-3)GlcNAc(b1-2)Man = target: Gal(b1-3)GlcNAc(b1-2)Man
Summary of the method: as §1

[8] = target: Gal(b1-3)GlcNAc(b1-2)Man(a1-3)[Gal(b1-3)GlcNAc(b1-2)Man(a1-6)]Man(b1-4)GlcNAc(b1-4)GlcNAc
Summary of the method: as §1

[9] = target: Gal(b1-3)GlcNAc(b1-2)Man(a1-3)[Gal(b1-3)GlcNAc(b1-2)Man(a1-6)]Man(b1-4)GlcNAc(b1-4)[Fuc(a1-6)]GlcNAc
Summary of the method: as §1

[10] = target: Gal(b1-3)GlcNAc(b1-2)Man(a1-3)[GlcNAc(b1-4)][Gal(b1-3)GlcNAc(b1-2)Man(a1-6)]Man(b1-4)GlcNAc(b1-4)GlcNAc
Summary of the method: as §1

[11] = target: Gal(b1-3)GlcNAc(b1-2)[Gal(b1-3)GlcNAc(b1-6)]Man(a1-6)[Gal(b1-3)GlcNAc(b1-2)Man(a1-3)]Man(b1-4)GlcNAc(b1-4)GlcNAc
Summary of the method: as §1

[12] = target: Gal(b1-3)GlcNAc(b1-3)Gal(b1-3)GlcNAc
Summary of the method: as §1

[13] = target: Gal(b1-3)GlcNAc(b1-3)Gal(b1-4)Glc
Summary of the method: as §1

[14] = target: Gal(b1-3)GlcNAc(b1-3)Gal(b1-4)GlcNAc
Summary of the method: as §1

[15] = target: Gal(b1-3)GlcNAc(b1-3)Gal(b1-4)GlcNAc(b1-2)Man(a1-3)[Gal(b1-3)GlcNAc(b1-3)Gal(b1-4)GlcNAc(b1-2)Man(a1-6)]Man(b1-4)GlcNAc(b1-4)GlcNAc
Summary of the method: as §1

[16] = target: Gal(b1-3)GlcNAc(b1-3)Gal(b1-4)GlcNAc(b1-2)[Gal(b1-3)GlcNAc(b1-3)Gal(b1-4)GlcNAc(b1-6)]Man(a1-6)[Gal(b1-3)GlcNAc(b1-3)Gal(b1-4)GlcNAc(b1-2)Man(a1-3)]Man(b1-4)GlcNAc(b1-4)[Fuc(a1-6)]GlcNAc
Summary of the method: as §1

[17] = target: Gal(b1-3)GlcNAc(b1-3)Gal(b1-4)GlcNAc(b1-3)Gal(b1-4)GlcNAc(b1-2)[Gal(b1-3)GlcNAc(b1-3)Gal(b1-4)GlcNAc(b1-3)Gal(b1-4)GlcNAc(b1-6)]Man(a1-6)[Gal(b1-3)GlcNAc(b1-3)Gal(b1-4)GlcNAc(b1-3)Gal(b1-4)GlcNAc(b1-2)Man(a1-3)]Man(b1-4)GlcNAc(b1-4)[Fuc(a1-6)]GlcNAc
Summary of the method: as §1

[18] = target: Gal(b1-3)GlcNAc(b1-3)Gal(b1-4)GlcNAc(b1-6)[Gal(b1-3)GlcNAc(b1-3)]Gal(b1-4)Glc
Summary of the method: as §1

[19] = target: Gal(b1-3)GlcNAc(b1-3)Gal(b1-4)[Fuc(a1-3)]GlcNAc
Summary of the method: as §1

[20] = target: Gal(b1-3)GlcNAc(b1-3)Gal(b1-4)[Fuc(a1-3)]GlcNAc(b1-6)[Gal(b1-3)GlcNAc(b1-3)]Gal(b1-4)Glc
Summary of the method: as §1

[21] = target: Gal(b1-3)GlcNAc(b1-3)GalNAc
Summary of the method: as §1

[22] = target: Gal(b1-3)GlcNAc(b1-6)Gal(b1-4)GlcNAc
Summary of the method: as §1

[23] = target: Gal(b1-3)GlcNAc(b1-6)GalNAc
Summary of the method: as §1

[24] = target: Gal(b1-3)GlcNAc(b1-6)[Gal(b1-3)]GalNAc
Summary of the method: as §1

Gal(b1-3)GlcNAc6S = target: Gal(b1-3)GlcNAc6S
Summary of the method: as §1

[25] = target: Gal(b1-3)[Fuc(a1-4)]GlcNAc
Summary of the method: as §1

[26] = target: Gal(b1-3)[Fuc(a1-4)]GlcNAc(b1-2)Man
Summary of the method: as §1

[27] = target: Gal(b1-3)[Fuc(a1-4)]GlcNAc(b1-2)Man(a1-3)[Gal(b1-3)[Fuc(a1-4)]GlcNAc(b1-2)Man(a1-6)]Man(b1-4)GlcNAc(b1-4)[Fuc(a1-6)]GlcNAc
Summary of the method: as §1

[28] = target: Gal(b1-3)[Fuc(a1-4)]GlcNAc(b1-3)Gal(b1-3)[Fuc(a1-4)]GlcNAc
Summary of the method: as §1

B1: AT1G77380(17) (Arabidopsis thaliana), Q39134 (protein)
chain: MVQNHQTVLAVDMPQTGGSKYLDDDGKNKRTGSVWTASAHIITAVIGSGVLSLAWATAQLGWLAGPVVMLLFSAVTYFTSSLLAACYRSGDPISGKRNYTYMDAVRSNLGGVKVTLCGIVQYLNIFGVAIGYTIASAISMMAIKRSNCFHKSGGKDPCHMNSNPYMIAFGLVQILFSQIPDFDQLWWLSILAAVMSFTYSSAGLALGIAQVVVNGKVKGSLTGISIGAVTETQKIWRTFQALGDIAFAYSYSIILIEIQDTVKSPPSEEKTMKKATLVSVSVTTMFYMLCGCMGYAAFGDLSPGNLLTGFGFYNPYWLLDIANAAIVIHLIGAYQVYCQPLFAFIEKQASIQFPDSEFIAKDIKIPIPGFKPLRLNVFRLIWRTVFVIITTVISMLLPFFNDVVGLLGALGFWPLTVYFPVEMYIAQKKIPRWSTRWVCLQVFSLGCLVVSIAAAAGSIAGVLLDLKSYKPFRSEY
B1 was tested, and the “glycan array binding signal (z-score)” value (Gal(a1-6)Glc) was -0.766, the “glycan array binding signal (z-score)” value (Gal(b1-2)Gal) was 0.081 and the “glycan array binding signal (z-score)” value (Gal(b1-3)Gal) was -0.551. The “glycan array binding signal (z-score)” value (Gal(b1-3)Gal(b1-4)GlcNAc) was -0.745, the “glycan array binding signal (z-score)” value (Gal(b1-3)GalNAc) was -0.583 and the “glycan array binding signal (z-score)” value [1] was -0.417. For the same binder, the “glycan array binding signal (z-score)” value [2] was -0.895, the “glycan array binding signal (z-score)” value (Gal(b1-3)GalNAc(b1-3)Gal) was -0.955 and the “glycan array binding signal (z-score)” value [3] was 0.619. The “glycan array binding signal (z-score)” value [4] was 0.424, the “glycan array binding signal (z-score)” value [5] was -0.62 and the “glycan array binding signal (z-score)” value (Gal(b1-3)GlcNAc) was -0.594. The “glycan array binding signal (z-score)” value [6] was -0.335, the “glycan array binding signal (z-score)” value [7] was 0.828 and the “glycan array binding signal (z-score)” value (Gal(b1-3)GlcNAc(b1-2)Man) was 0.434. For the same binder, the “glycan array binding signal (z-score)” value [8] was -0.421, the “glycan array binding signal (z-score)” value [9] was 3.2 and the “glycan array binding signal (z-score)” value [10] was 0.236. The “glycan array binding signal (z-score)” value [11] was 1.48, the “glycan array binding signal (z-score)” value [12] was -0.204 and the “glycan array binding signal (z-score)” value [13] was 0.098. For the same binder, the “glycan array binding signal (z-score)” value [14] was -0.732, the “glycan array binding signal (z-score)” value [15] was -0.644 and the “glycan array binding signal (z-score)” value [16] was -0.299. The “glycan array binding signal (z-score)” value [17] was -0.832, the “glycan array binding signal (z-score)” value [18] was 1.9 and the “glycan array binding signal (z-score)” value [19] was -0.941. The “glycan array binding signal (z-score)” value [20] was 0.712, the “glycan array binding signal (z-score)” value [21] was -0.416 and the “glycan array binding signal (z-score)” value [22] was 0.308. For the same binder, the “glycan array binding signal (z-score)” value [23] was -0.829, the “glycan array binding signal (z-score)” value [24] was -0.631 and the “glycan array binding signal (z-score)” value (Gal(b1-3)GlcNAc6S) was -0.412. For the same binder, the “glycan array binding signal (z-score)” value [25] was 0.63, the “glycan array binding signal (z-score)” value [26] was 0.006 and the “glycan array binding signal (z-score)” value [27] was 0.88. For the same binder, the “glycan array binding signal (z-score)” value [28] was -0.552.
